From PMC9600550, “The pH Robustness of Bacterial Sensing” (mBio, 2022)
A number of entries come with more than one value. Only these are listed. The source may hold further records. Values that stand side by side do not match, cause unknown; some may be repeats, others may stem from another dose, organism or construct than stated.

Amino acid sequences for entries named in this document (tags omitted). Residues count along the entry.
UniProt P07017, 31-188 limits assumed: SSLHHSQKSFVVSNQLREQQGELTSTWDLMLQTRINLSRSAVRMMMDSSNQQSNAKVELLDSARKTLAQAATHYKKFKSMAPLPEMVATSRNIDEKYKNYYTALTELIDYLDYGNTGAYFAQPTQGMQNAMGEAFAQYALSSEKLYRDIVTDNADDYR

Target: Tar-LBD (Escherichia coli, UniProt P07017)
Experiment: Differential scanning calorimetry of Tar-LBD thermal unfolding in presence of L-Asp
Conditions: pH 7.0; 1 mM L-Asp; two transitions

SMILES: N[C@@H](CC(=O)O)C(=O)O [L-aspartate]
- ΔH of Tar-LBD thermal unfolding: 79.3 kcal/mol and 26.2 kcal/mol
